# Reference: PubChem BioAssay AID1671190 (National Center for Advancing Translational Sciences (NCATS), 2021)
# Amino acid sequences for entries named in this document (tags omitted).
# UniProt P18054, whole entry, looked up: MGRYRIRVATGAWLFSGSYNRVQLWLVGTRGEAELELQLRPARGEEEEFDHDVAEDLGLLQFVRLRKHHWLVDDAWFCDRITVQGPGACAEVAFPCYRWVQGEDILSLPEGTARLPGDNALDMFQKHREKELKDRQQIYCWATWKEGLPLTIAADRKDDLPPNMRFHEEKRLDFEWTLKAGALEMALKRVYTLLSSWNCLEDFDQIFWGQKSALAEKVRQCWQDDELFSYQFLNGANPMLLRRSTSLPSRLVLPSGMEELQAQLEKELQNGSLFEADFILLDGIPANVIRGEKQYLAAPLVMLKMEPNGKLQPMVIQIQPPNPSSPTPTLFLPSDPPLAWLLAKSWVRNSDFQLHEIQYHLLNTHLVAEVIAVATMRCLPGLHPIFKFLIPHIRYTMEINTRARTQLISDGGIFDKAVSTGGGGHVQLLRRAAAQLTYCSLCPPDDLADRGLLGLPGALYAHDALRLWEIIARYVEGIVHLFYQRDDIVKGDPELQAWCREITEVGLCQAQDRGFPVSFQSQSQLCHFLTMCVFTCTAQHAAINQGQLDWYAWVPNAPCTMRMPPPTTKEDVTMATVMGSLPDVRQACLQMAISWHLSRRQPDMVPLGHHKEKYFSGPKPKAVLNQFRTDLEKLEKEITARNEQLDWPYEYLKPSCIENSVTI
# Screen size: about 580,000 compounds; about 6,100 (1.1%) were called active. The inconclusive results got no clear call from the source; some entries with a clear call stand among them for comparison. The call rests on the fitted dose curve; in most records, active means well fitted inhibition curve with a large enough effect; inconclusive means small, poorly fitted or top-dose-only effect, or another doubt; inactive means no such curve, though single readings can be large or run the other way. Potencies beside an inconclusive call are fits to weak or partial responses and may not hold up.
# Target: Polyunsaturated fatty acid lipoxygenase ALOX12 (Homo sapiens) (UniProt P18054)
# Assay: Primary qHTS assay for inhibitors of human arachidonate 12S-lipoxygenase (ALOX12): Round 2
# Details: purified 12hLO, xylenol orange hydroperoxide absorbance; series mostly up to 108 µM
# Summary of the method: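 Purified human 12hLO (150 nM final) in 25 mM Hepes, 0.01% Triton X-100, pH 7.0 was preincubated 15 min at room temperature with compound. Then 40 uM arachidonic acid was added, 30 min. Hydroperoxide was read by Fe-XO absorbance ratio 573/405 nm.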
# Potency means the concentration at half of the fitted maximal effect.
row,Structure (SMILES),Potency
1,CN(C)c1ccc(C(=O)/C=C/c2ccncc2)cc1,"inconclusive: 2.24 µM [inhibitor, full curve, poor fit]"
2,CCOc1ccc2oc(C(=O)NNC(=O)c3csc(N4CCOCC4)n3)c(C)c2c1,"inconclusive: 35.5 µM [inhibitor, single point]"
3,COc1ccc(CNC(=O)C[C@H]2C[C@H](C(=O)N3CCCCC3)[C@@]3(C)c4[nH]c5cc(CCC(=O)N(C)C)ccc5c4CCN3C2=O)cc1OC,"inconclusive: 3.55 µM [inhibitor, full curve, poor fit]"
4,OC(COCC1COc2ccccc2O1)CN1CCN(c2ccccc2)CC1 (stereo not given),"inconclusive: 28.2 µM [inhibitor, partial curve, poor fit]"
5,COc1ccc(S(=O)(=O)N2CCC(C(=O)Nc3ccc4c(c3)OCCO4)CC2)cc1OC,inactive
6,COc1ccc(N(CC(C)C)S(=O)(=O)c2nnc(NC(=O)CC(C)C)s2)cc1,"inconclusive: 7.94 µM [inhibitor, full curve, poor fit]"
7,COc1cccc(CNC(=O)c2c(OC)cc(=O)n3c2CCN(C(=O)C2CC24CCCC4)CC3)c1 (stereo not given),"inconclusive: 126 µM [inhibitor, single point]"
8,CCn1c(CNc2ccc(OC)cc2)nnc1SCC(=O)Nc1ccc(F)cc1,inactive
9,O=C(COC(=O)c1ccc([N+](=O)[O-])cc1)NC12CC3CC(CC(C3)C1)C2,inactive
10,COc1ccccc1OCc1nc(-c2cccc([N+](=O)[O-])c2)no1,"inconclusive: 3.55 µM [inhibitor, full curve, poor fit]"
11,COc1ccc(Nc2nc(-c3ccc(OC)cc3)c(C)s2)cc1,"inconclusive: 100 µM [inhibitor, partial curve, poor fit]"
12,CC1CS(=O)(=O)N(c2ccc(S(=O)(=O)NCc3ccc(Cl)cc3)cc2)C1=O (stereo not given),"inconclusive: 35.5 µM [inhibitor, single point]"
13,CCOc1cc(C2C3=C(CCCC3=O)N(CC(=O)O)C3=C2C(=O)CCC3)ccc1OC,"inconclusive: 14.1 µM [inhibitor, partial curve, poor fit]"
14,Cc1cccc(COC[C@H](Cc2ccccc2)N2CCN(C(=O)c3ccc(C(F)(F)F)cc3)CCC2=O)c1,"inconclusive: 89.1 µM [inhibitor, single point]"
15,CCCCCCCCc1ccc(C(=O)CCN(C)C)cc1,active: 12.6 µM
16,Cc1cccc(-c2n[nH]c(=S)n2/N=C/c2ccc(C)s2)c1,inactive
17,CC(C)NC(=O)c1onc(CSc2ccc(Cl)cc2)c1C(=O)O,"inconclusive: 112 µM [inhibitor, partial curve, poor fit]"
18,Cc1cccc(NS(=O)(=O)c2cc(-c3cnc(C)o3)ccc2C)c1,inactive
19,CN(Cc1ccccc1)C(=O)COc1ccc(Br)cc1Cl,inactive
20,Cn1c(-c2sc3cc(C(F)(F)F)cnc3c2-c2cccs2)n[nH]c1=S,"inconclusive: 0.794 µM [inhibitor, full curve, poor fit]"
21,CC(C)Sc1ncc(Cl)c(C(=O)Nc2ccc(S(=O)(=O)Nc3ncccn3)cc2)n1,inactive
22,CN(C)C(=O)C1CCc2nnc(-c3ccc(Cl)cc3Cl)n21 (stereo not given),"inconclusive: 7.08 µM [inhibitor, full curve, poor fit]"

# Four of the compounds above, with tabs.
row	Structure (SMILES)	Potency
12	CC1CS(=O)(=O)N(c2ccc(S(=O)(=O)NCc3ccc(Cl)cc3)cc2)C1=O (stereo not given)	inconclusive: 35.5 µM [inhibitor, single point]
15	CCCCCCCCc1ccc(C(=O)CCN(C)C)cc1	active: 12.6 µM
18	Cc1cccc(NS(=O)(=O)c2cc(-c3cnc(C)o3)ccc2C)c1	inactive
22	CN(C)C(=O)C1CCc2nnc(-c3ccc(Cl)cc3Cl)n21 (stereo not given)	inconclusive: 7.08 µM [inhibitor, full curve, poor fit]

# The list continues.

row,Structure (SMILES),Potency
1,CC1CCCC(C)N1/N=C/c1ccc(O)c(O)c1 (stereo not given),"inconclusive: 3.98 µM [inhibitor, full curve, poor fit]"
2,O=C(NCCOc1ccccc1Cl)c1ccc2c(c1)S(=O)(=O)c1cc(Cl)ccc1C2=O,inactive
3,COC[C@H]1CCCN1C(=O)C[C@@H]1O[C@H](CNS(=O)(=O)c2ccc(Cl)cc2)[C@@H](O)[C@H]1O,"inconclusive: 7.08 µM [inhibitor, full curve]"
4,CNC(=O)c1cccc(NC(=O)CC(C)(C(=O)O)c2ccccc2)c1 (stereo not given),"inconclusive: 35.5 µM [inhibitor, partial curve, poor fit]"
5,Nc1ccc2c(c1)Nc1ccccc1CC2,"inconclusive: 44.7 µM [inhibitor, partial curve, poor fit]"
6,CCc1cn(C2CC(O)C(CO)O2)c(=O)[nH]c1=O (stereo not given),inactive
7,CN(C)c1nc(N(C)C)nc(N(C#N)Cc2ccc(Cl)cc2)n1,"inconclusive: 100 µM [inhibitor, partial curve, poor fit]"
8,CCSc1nnc(NC(=O)CCNS(=O)(=O)c2ccccc2F)s1,"inconclusive: 126 µM [inhibitor, partial curve, poor fit]"
9,Cc1ccc(S(=O)(=O)N2c3ccccc3-c3c(ssc3=S)C2(C)C)cc1,"inconclusive: 35.5 µM [inhibitor, partial curve]"
10,O=C(O)C1Sc2[nH]c(=O)sc2C2c3cc(Cl)ccc3OC(=O)C12 (stereo not given),"inconclusive: 15.8 µM [inhibitor, full curve, poor fit]"
11,CCn1c(SCC(=O)N(C)Cc2ccc(-c3ccc(Br)cc3)o2)nnc1C1CC1,"inconclusive: 44.7 µM [inhibitor, partial curve, poor fit]"
12,O=C(CN(c1ccccc1)S(=O)(=O)c1ccccc1)NCC1CCCO1 (stereo not given),"inconclusive: 112 µM [inhibitor, single point]"
13,CCCNC(=O)C1CCN(S(=O)(=O)c2ccc3nc4c(c(C(=O)O)c3c2)CCCCC4)CC1,"inconclusive: 50.1 µM [inhibitor, partial curve, poor fit]"
14,O=C1c2oc3ccc(F)cc3c(=O)c2C(c2ccc(F)cc2)N1CCCN1CCOCC1 (stereo not given),"inconclusive: 28.2 µM [inhibitor, partial curve, poor fit]"
15,Cc1ccc(NC(=O)Nc2cccs2)c(Cl)c1,inactive
16,Cn1cnc(S(=O)(=O)N2CCCOCCNC(=O)[C@@H]3CCC[C@@H]32)c1,inactive
17,O=C(c1ccccc1)c1ccc2nc(N3CCN(C(=O)c4ccco4)CC3)c3nncn3c2c1,"inconclusive: 28.2 µM [inhibitor, partial curve]"
18,O=C(OCc1cc(=O)oc2cc(O)ccc12)c1ccc(F)cc1F,"inconclusive: 50.1 µM [inhibitor, partial curve, poor fit]"
19,Cc1cccc(N2CCN(C(=O)COCc3cc(-c4ccc(F)cc4)on3)CC2)c1C,"inconclusive: 50.1 µM [inhibitor, partial curve, poor fit]"
20,COc1cc(CN2CCOc3ccc(C(O)c4cccnc4)cc3C2)cc(OC)c1 (stereo not given),inactive
21,COc1ccc(Nc2cc3c(nc2-c2ccccc2)nc(C(=O)NCCN(C)C)n3C)cn1,"inconclusive: 31.6 µM [inhibitor, full curve]"
22,O=C1c2ccccc2C(=O)N1CC#CCN1CCN(C2CCCCC2)CC1,"inconclusive: 35.5 µM [inhibitor, partial curve]"

row,Structure (SMILES),Potency
1,O=C(Nc1ccc(Cn2cccn2)cc1)c1ccc(COc2ccc(Br)cc2)cc1,inactive
2,CN1CC(=O)N(C2CCCNC2)Cc2c(NCc3ccc4c(c3)OCO4)ncnc21 (stereo not given),active: 4.47 µM
3,CC(O)CNc1cc(N)c([N+](=O)[O-])cc1[N+](=O)[O-] (stereo not given),"inconclusive: 39.8 µM [inhibitor, partial curve, poor fit]"
4,CCCSc1nc(=S)n(Cc2ccccc2)c(C)c1C(C)=O,"inconclusive: 28.2 µM [inhibitor, partial curve, poor fit]"
5,O=Cc1[nH]c2ccccc2c1N(C(=O)CCl)c1ccccc1,inactive
6,O=C1C(=Cc2ccco2)CCCC1=Cc1ccco1,active: 25.1 µM
7,CC(CNC(=O)NCc1cccs1)N1CCOCC1 (stereo not given),inactive
8,Cc1ccc(N2C(=O)CN(Cc3ccccc3)C2=S)cc1C,"inconclusive: 35.5 µM [inhibitor, partial curve, poor fit]"
9,COc1ccc(C2CC(c3ccccc3OC(C)=O)=NN2C(C)=O)cc1 (stereo not given),"inconclusive: 126 µM [inhibitor, single point]"
10,S=C(Nc1ccc(Cl)cc1)Nc1cccc2cnccc12,"inconclusive: 50.1 µM [inhibitor, partial curve, poor fit]"
11,O=C(c1ccco1)N1c2ccccc2Sc2ccccc21,"inconclusive: 126 µM [inhibitor, single point]"
12,CCCC(=O)Nc1cc(-c2nc3cc(C)ccc3o2)ccc1C,"inconclusive: 63.1 µM [inhibitor, partial curve, poor fit]"
13,CNC(=O)NC(=O)C(C)Sc1cc(C)c2ccccc2n1 (stereo not given),inactive
14,O=C(O)CCN1CCN(CCC(=O)O)CC1,"inconclusive: 0.631 µM [inhibitor, full curve, poor fit]"
15,Cc1ccccc1-c1nc(CS(=O)(=O)CC(=O)Nc2cc(Cl)cc(Cl)c2)c(C)o1,"inconclusive: 79.4 µM [inhibitor, partial curve, poor fit]"
16,COc1ccc(S(=O)(=O)N(C)C[C@H]2Oc3c(NC(=O)Nc4ccc5c(c4)OCO5)cccc3C(=O)N([C@H](C)CO)C[C@@H]2C)cc1,"inconclusive: 50.1 µM [inhibitor, partial curve, poor fit]"
17,O=C(C1CN(c2ccc(Cl)cc2)C(=O)N1)N1CCN(Cc2ccccc2)CC1 (stereo not given),"inconclusive: 17.8 µM [inhibitor, full curve, poor fit]"
18,CC(=O)Oc1ccccc1-c1nc(/C=C/c2ccccc2)no1,inactive
19,COc1ccc(-c2ccc3c(n2)CN(CCOc2ccccc2)C(=O)CO3)cc1,"inconclusive: 3.55 µM [inhibitor, full curve]"
20,CCOC(=O)c1c(NC(=S)NCC2CCCO2)sc(C)c1C (stereo not given),"inconclusive: 44.7 µM [inhibitor, partial curve]"
21,CCc1nonc1NC(=O)COc1ccc(C)c(C)c1,"inconclusive: 39.8 µM [inhibitor, partial curve, poor fit]"
